Source: PMC13304329
These are yes or no findings as the source states them, for the method shown. In cells and extracts the contact can be indirect. These calls come from enrichment with a bait or labelling near it, and not all partners need be listed.

Chains of the proteins cited; added tags and fusions are not shown.
UniProt Q5S007: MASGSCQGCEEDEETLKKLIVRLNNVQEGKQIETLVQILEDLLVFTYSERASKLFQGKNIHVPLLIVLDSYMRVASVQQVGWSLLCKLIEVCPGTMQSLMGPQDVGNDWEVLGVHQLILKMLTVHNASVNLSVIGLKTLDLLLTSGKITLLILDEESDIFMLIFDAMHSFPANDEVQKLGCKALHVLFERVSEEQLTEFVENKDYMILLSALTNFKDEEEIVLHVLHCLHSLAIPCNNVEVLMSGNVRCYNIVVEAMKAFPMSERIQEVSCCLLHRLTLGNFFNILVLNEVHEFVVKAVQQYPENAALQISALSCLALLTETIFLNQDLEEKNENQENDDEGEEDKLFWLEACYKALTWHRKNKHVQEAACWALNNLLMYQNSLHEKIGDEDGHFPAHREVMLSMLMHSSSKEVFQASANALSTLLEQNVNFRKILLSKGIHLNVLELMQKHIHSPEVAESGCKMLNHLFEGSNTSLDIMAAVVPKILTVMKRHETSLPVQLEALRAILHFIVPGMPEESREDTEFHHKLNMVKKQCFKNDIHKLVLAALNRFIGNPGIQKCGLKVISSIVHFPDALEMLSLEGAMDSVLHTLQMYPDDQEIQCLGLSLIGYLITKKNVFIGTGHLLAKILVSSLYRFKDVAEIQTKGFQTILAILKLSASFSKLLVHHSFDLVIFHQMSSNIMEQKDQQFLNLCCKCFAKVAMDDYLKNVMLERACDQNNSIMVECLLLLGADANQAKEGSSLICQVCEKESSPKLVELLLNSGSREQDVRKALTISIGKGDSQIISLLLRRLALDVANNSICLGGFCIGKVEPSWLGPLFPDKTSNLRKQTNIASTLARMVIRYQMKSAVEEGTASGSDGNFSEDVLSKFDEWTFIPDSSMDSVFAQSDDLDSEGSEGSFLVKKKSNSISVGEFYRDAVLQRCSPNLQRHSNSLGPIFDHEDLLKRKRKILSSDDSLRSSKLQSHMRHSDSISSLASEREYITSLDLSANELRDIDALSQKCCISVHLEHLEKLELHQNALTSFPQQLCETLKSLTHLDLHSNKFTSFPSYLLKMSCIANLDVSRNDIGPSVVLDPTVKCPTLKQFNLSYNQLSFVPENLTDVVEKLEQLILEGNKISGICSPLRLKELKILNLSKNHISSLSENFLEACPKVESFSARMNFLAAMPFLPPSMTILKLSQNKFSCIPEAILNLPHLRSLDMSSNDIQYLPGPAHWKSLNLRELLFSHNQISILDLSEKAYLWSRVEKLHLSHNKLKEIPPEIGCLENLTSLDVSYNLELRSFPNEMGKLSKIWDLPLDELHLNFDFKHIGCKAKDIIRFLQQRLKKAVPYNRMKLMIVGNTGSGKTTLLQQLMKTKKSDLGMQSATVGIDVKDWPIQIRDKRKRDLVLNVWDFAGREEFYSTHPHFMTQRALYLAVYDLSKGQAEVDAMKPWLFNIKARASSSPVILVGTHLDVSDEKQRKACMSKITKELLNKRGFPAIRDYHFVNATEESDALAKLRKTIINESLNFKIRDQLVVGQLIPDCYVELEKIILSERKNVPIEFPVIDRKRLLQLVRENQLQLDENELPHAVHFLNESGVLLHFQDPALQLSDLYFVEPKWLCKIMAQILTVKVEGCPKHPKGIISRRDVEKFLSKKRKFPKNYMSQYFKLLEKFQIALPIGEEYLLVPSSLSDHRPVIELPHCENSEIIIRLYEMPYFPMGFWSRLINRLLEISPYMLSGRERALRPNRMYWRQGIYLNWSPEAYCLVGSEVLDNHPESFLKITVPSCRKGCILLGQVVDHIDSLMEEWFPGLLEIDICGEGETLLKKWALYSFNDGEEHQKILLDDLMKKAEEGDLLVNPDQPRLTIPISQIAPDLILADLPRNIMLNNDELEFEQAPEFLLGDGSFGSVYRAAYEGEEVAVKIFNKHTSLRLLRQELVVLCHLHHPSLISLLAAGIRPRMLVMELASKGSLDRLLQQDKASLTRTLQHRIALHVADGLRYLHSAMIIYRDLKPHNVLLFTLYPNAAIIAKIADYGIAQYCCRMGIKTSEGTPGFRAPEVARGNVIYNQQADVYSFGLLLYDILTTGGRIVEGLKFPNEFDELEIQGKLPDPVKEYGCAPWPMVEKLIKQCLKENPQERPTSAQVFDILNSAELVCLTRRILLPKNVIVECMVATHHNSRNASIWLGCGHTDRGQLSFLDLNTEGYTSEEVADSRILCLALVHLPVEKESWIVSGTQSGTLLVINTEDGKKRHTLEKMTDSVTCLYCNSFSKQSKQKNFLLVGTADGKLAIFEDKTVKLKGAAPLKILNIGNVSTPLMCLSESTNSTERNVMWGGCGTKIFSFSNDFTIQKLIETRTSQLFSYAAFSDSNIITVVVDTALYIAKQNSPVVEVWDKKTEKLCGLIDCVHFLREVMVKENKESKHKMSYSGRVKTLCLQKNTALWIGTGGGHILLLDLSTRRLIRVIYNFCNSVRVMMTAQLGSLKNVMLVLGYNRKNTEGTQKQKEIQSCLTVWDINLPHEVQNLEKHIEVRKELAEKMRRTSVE
UniProt Q15154: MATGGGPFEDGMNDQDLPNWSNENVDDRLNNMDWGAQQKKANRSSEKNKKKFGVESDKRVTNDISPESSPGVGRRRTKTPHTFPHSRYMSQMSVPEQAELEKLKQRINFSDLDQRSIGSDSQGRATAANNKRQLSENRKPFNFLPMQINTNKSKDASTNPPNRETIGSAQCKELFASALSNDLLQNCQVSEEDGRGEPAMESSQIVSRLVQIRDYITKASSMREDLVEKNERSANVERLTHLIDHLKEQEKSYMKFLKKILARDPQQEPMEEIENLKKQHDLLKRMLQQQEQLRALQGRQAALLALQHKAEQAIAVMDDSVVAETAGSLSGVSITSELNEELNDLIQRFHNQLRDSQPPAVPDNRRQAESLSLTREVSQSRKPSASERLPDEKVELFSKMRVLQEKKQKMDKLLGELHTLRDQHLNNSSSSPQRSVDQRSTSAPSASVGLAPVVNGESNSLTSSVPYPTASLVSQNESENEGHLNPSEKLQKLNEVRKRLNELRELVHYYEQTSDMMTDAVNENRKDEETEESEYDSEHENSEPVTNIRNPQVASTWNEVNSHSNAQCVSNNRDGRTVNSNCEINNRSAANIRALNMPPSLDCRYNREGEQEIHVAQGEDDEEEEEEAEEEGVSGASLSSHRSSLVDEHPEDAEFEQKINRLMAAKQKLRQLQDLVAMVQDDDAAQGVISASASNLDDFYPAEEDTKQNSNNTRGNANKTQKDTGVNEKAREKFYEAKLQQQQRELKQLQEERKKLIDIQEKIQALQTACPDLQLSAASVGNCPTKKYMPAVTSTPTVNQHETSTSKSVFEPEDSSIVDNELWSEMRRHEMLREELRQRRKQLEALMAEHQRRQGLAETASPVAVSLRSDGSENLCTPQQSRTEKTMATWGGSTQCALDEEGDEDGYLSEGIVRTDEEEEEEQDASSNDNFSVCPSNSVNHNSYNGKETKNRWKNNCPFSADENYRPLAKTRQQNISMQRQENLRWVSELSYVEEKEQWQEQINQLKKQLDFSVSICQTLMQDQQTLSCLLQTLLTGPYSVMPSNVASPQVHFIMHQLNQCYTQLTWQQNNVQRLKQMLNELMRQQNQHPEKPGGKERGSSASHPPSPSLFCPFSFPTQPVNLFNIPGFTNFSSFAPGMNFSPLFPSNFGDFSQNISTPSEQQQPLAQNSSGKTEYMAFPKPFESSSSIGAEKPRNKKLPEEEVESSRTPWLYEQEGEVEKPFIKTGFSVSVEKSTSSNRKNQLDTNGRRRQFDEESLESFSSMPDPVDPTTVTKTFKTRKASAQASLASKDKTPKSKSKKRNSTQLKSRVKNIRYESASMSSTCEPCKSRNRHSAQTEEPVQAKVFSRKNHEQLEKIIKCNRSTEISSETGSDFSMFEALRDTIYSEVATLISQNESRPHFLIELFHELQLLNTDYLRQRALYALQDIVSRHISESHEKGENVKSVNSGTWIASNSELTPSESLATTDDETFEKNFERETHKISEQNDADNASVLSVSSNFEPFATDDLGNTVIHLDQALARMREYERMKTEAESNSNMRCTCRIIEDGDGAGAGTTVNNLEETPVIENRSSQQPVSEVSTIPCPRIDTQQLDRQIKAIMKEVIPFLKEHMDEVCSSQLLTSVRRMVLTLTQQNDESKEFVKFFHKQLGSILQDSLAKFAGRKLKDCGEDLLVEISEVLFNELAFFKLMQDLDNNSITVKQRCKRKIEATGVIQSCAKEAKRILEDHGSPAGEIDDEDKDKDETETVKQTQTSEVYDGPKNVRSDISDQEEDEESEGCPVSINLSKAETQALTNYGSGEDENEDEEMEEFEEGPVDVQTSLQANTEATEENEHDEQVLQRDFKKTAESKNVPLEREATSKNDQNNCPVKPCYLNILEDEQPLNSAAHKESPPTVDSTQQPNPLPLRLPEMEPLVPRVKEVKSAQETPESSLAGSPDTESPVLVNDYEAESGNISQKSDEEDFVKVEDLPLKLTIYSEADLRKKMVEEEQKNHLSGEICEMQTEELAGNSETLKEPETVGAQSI

B1: Coiled-coil domain-containing protein 14 (protein, UniProt Q49A88 1-953)
chain: MKRGIRRDPFRKRKLGGRAKKVREPTAVNSFYREASLPSVWASLRRREMVRSGARPGQVLSSGRHTGPAKLTNGKKATYLRKIPRFNADSGYSIHSDSESQAETVHGLDGCASLLRDILRNEDSGSETAYLENRSNSRPLESKRYGSKKKRHEKHTIPLVVQKETSSSDNKKQIPNEASARSERDTSDLEQNWSLQDHYRMYSPIIYQALCEHVQTQMSLMNDLTSKNIPNGIPAVPCHAPSHSESQATPHSSYGLCTSTPVWSLQRPPCPPKVHSEVQTDGNSQFASQGKTVSATCTDVLRNSFNTSPGVPCSLPKTDISAIPTLQQLGLVNGILPQQGIHKETDLLKCIQTYLSLFRSHGKETHLDSQTHRSPTQSQPAFLATNEEKCAREQIREATSERKDLNIHVRDTKTVKDVQKAKNVNKTAEKVRIIKYLLGELKALVAEQEDSEIQRLITEMEACISVLPTVSGNTDIQVEIALAMQPLRSENAQLRRQLRILNQQLREQQKTQKPSGAVDCNLELFSLQSLNMSLQNQLEESLKSQELLQSKNEELLKVIENQKDENKKFSSIFKDKDQTILENKQQYDIEITRIKIELEEALVNVKSSQFKLETAEKENQILGITLRQRDAEVTRLRELTRTLQTSMAKLLSDLSVDSARCKPGNNLTKSLLNIHDKQLQHDPAPAHTSIMSYLNKLETNYSFTHSEPLSTIKNEETIEPDKTYENVLSSRGPQNSNTRGMEEASAPGIISALSKQDSDEGSETMALIEDEHNLDNTIYIPFARSTPEKKSPLSKRLSPQPQIRAATTQLVSNSGLAVSGKENKLCTPVICSSSTKEAEDAPEKLSRASDMKDTQLLKKIKEAIGKIPAATKEPEEQTACHGPSGCLSNSLQVKGNTVCDGSVFTSDLMSDWSISSFSTFTSRDEQDFRNGLAALDANIARLQKSLRTGLLEK
B2: Oral-facial-digital syndrome 1 protein (protein, UniProt O75665 1-1012)
chain: MMAQSNMFTVADVLSQDELRKKLYQTFKDRGILDTLKTQLRNQLIHELMHPVLSGELQPRSISVEGSSLLIGASNSLVADHLQRCGYEYSLSVFFPESGLAKEKVFTMQDLLQLIKINPTSSLYKSLVSGSDKENQKGFLMHFLKELAEYHQAKESCNMETQTSSTFNRDSLAEKLQLIDDQFADAYPQRIKFESLEIKLNEYKREIEEQLRAEMCQKLKFFKDTEIAKIKMEAKKKYEKELTMFQNDFEKACQAKSEALVLREKSTLERIHKHQEIETKEIYAQRQLLLKDMDLLRGREAELKQRVEAFELNQKLQEEKHKSITEALRRQEQNIKSFEETYDRKLKNELLKYQLELKDDYIIRTNRLIEDERKNKEKAVHLQEELIAINSKKEELNQSVNRVKELELELESVKAQSLAITKQNHMLNEKVKEMSDYSLLKEEKLELLAQNKLLKQQLEESRNENLRLLNRLAQPAPELAVFQKELRKAEKAIVVEHEEFESCRQALHKQLQDEIEHSAQLKAQILGYKASVKSLTTQVADLKLQLKQTQTALENEVYCNPKQSVIDRSVNGLINGNVVPCNGEISGDFLNNPFKQENVLARMVASRITNYPTAWVEGSSPDSDLEFVANTKARVKELQQEAERLEKAFRSYHRRVIKNSAKSPLAAKSPPSLHLLEAFKNITSSSPERHIFGEDRVVSEQPQVGTLEERNDVVEALTGSAASRLRGGTSSRRLSSTPLPKAKRSLESEMYLEGLGRSHIASPSPCPDRMPLPSPTESRHSLSIPPVSSPPEQKVGLYRRQTELQDKSEFSDVDKLAFKDNEEFESSFESAGNMPRQLEMGGLSPAGDMSHVDAAAAAVPLSYQHPSVDQKQIEEQKEEEKIREQQVKERRQREERRQSNLQEVLERERRELEKLYQERKMIEESLKIKIKKELEMENELEMSNQEIKDKSAHSENPLEKYMKIIQQEQDQESADKSSKKMVQEGSLVDTLQSSDKVESLTGFSHEELDDSW
B3: Progesterone-induced-blocking factor 1 (protein, UniProt Q8WXW3 1-757)
chain: MSRKISKESKKVNISSSLESEDISLETTVPTDDISSSEEREGKVRITRQLIERKELLHNIQLLKIELSQKTMMIDNLKVDYLTKIEELEEKLNDALHQKQLLTLRLDNQLAFQQKDASKYQELMKQEMETILLRQKQLEETNLQLREKAGDVRRNLRDFELTEEQYIKLKAFPEDQLSIPEYVSVRFYELVNPLRKEICELQVKKNILAEELSTNKNQLKQLTETYEEDRKNYSEVQIRCQRLALELADTKQLIQQGDYRQENYDKVKSERDALEQEVIELRRKHEILEASHMIQTKERSELSKEVVTLEQTVTLLQKDKEYLNRQNMELSVRCAHEEDRLERLQAQLEESKKAREEMYEKYVASRDHYKTEYENKLHDELEQIRLKTNQEIDQLRNASREMYERENRNLREARDNAVAEKERAVMAEKDALEKHDQLLDRYRELQLSTESKVTEFLHQSKLKSFESERVQLLQEETARNLTQCQLECEKYQKKLEVLTKEFYSLQASSEKRITELQAQNSEHQARLDIYEKLEKELDEIIMQTAEIENEDEAERVLFSYGYGANVPTTAKRRLKQSVHLARRVLQLEKQNSLILKDLEHRKDQVTQLSQELDRANSLLNQTQQPYRYLIESVRQRDSKIDSLTESIAQLEKDVSNLNKEKSALLQTKNQMALDLEQLLNHREELAAMKQILVKMHSKHSENSLLLTKTEPKHVTENQKSKTLNVPKEHEDNIFTPKPTLFTKKEAPEWSKKQKMKT
B4: Centrosomal protein of 162 kDa (protein, UniProt Q5TB80 1-1403)
chain: MANCSQEELDEEFEQFMKELSDDSFENSDKTARQSKKEMKKKDTVPWWITEDDFKDDGLLGTNVSYLKTKKTSQPVMEIEEESAEKIQFLKSSGTSLLSTDSLETNELVVSELNHSSLGVGLDTLEEQEEKEQFFARLEKGLTSSIDYSRLNKELDSNDSTHFKALHSNQANAELTDDEHENESKHEELAENYSDDFEDEYVGAPLTTKDEEMPSKENSKSEKISVPKQEEEKTGMLANVVLLDSLDSVAEVNLDEQDKITPKPRCLPEMTENEMTGTGVSYGQSSSDVEALHQAYCHIAHSLGDEDKQKIESNTVEDIKSSVKGHPQENEENSKNISTMESDLPTVEELMKPIRIDSFGISGFDLQPVSSEKVAERKETEFFSSLPLKMNPNILSQDSQHVNLFFDKNDENVILQKTTNESMENSCPQVTEVTATEEHVDKMYLNILRKKITVNSSSLSQDDKINKTYRSQLSSEEEGAVMGKQVPYKKARSAPPLLKRKPQSGLYASVRSSGYGKPSSPLKMFSTLEKKTSEDIIKSKNLRSISTSNQPRKKEILSGTKLIKPAALDKPAHKTESCLSTRKKSENPTETDSCIQFQTDSLGYCGENKEKKLLMFKRVQEAEDKWRGAQALIEQIKATFSEKEKELENKLEELKKQQEKELFKLNQDNYILQAKLSSFEETNKKQRWLHFGEAADPVTGEKLKQIQKEIQEQETLLQGYQQENERLYNQVKDLQEQNKKNEERMFKENQSLFSEVASLKEQMHKSRFLSQVVEDSEPTRNQNFTDLLAELRMAQKEKDSLLEDIKRLKQDKQALEVDFEKMKKERDQAKDQIAYVTGEKLYEIKILEETHKQEISRLQKRLQWYAENQELLDKDALRLREANEEIEKLKLEIEKLKAESGNPSIRQKIRLKDKAADAKKIQDLERQVKEMEGILKRRYPNSLPALILAASAAGDTVDKNTVEFMEKRIKKLEADLEGKDEDAKKSLRTMEQQFQKMKIQYEQRLEQQEQLLACKLNQHDSPRIKALEKELDDIKEAHQITVRNLEAEIDVLKHQNAELDVKKNDKDDEDFQSIEFQVEQAHAKAKLVRLNEELAAKKREIQDLSKTVERLQKDRRMMLSNQNSKGREEMSAKRAKKDVLHSSKGNANSFPGTLDSKLYQPHTFTDSHVSEVLQENYRLKNELEGLISEKNELKMKSEAVMNQFENSMRRVKEDTAAHIASLKASHQREIEKLLCQNAVENSSSKVAELNRKIATQEVLIRHFQSQVNELQSKQESLVVSEVREEILQKEITKLLEELREAKENHTPEMKHFVGLEKKIKQMEMRHAQREQELQQIIQQTHQVVETEQNKEVEKWKRLAQLKNRELEKFRTELDSILDVLRELHRQGVVVPVAFADEMNAPEY

Key:
[1] = target: miniTurbo-LRRK2 (human) (UniProt Q5S007); assay: proximity labelling; BioID eluates after streptavidin-based enrichment read by Western blot (anti-PCM1, anti-SSX2IP); control siRNA; 10 uM MLi-2 or DMSO
[2] = target: miniTurbo-LRRK2 (human) (UniProt Q5S007); assay: proximity labelling; HEK293 stably expressing mT-LRRK2; 1 uM MLi-2 against DMSO, 1 h prior to and during 2 h of 50 uM biotin; Strep-Tactin enrichment, LC-MSMS, LFQ with FDR-controlled t test

Row | Molecule | binding [1] | binding [2]
1 | Pericentriolar material 1 protein (from UniProt Q15154 1-2024) | binds | binds
2 | B1 |  | binds
3 | B2 |  | binds
4 | B3 |  | binds
5 | B4 |  | binds
